Data from patent publication US20030229204A1.
These are yes or no findings as the source states them, for the method shown. For some assays here: In cells and extracts the contact can be indirect. Some binding calls cover weakened binding; strength is not graded here. For some assays here: Where a sequence is shown, tags or fusion partners need not be part of it. One block for each binder: values may come before it.

The chains behind the UniProt entries cited, without tags or fusion partners.
UniProt P37238: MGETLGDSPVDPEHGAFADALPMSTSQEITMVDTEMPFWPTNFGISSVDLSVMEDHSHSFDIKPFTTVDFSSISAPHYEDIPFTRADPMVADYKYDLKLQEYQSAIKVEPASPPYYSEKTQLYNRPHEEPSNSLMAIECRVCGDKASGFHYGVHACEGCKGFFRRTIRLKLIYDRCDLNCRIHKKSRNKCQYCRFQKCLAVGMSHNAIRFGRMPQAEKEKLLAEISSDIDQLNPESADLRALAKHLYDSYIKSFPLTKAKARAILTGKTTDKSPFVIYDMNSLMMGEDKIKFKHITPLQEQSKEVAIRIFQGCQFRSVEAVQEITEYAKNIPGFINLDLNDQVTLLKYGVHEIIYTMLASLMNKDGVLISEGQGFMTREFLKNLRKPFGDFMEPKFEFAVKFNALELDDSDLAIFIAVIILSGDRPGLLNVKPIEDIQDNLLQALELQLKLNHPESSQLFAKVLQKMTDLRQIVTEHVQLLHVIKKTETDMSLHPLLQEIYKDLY

What was measured:
PPARγ [1] = biological target: PPARγ (UniProt P37238); assay: co-immunoprecipitation from transfected COS cells: anti-PPARγ immunoprecipitation, anti-HA Western blot
[2] = biological target: GST-PPARγ fusion protein (immobilized PPARγ) (UniProt P37238); assay: pull-down of in vitro-translated 35S-labeled PGC-1 with immobilized GST-PPARγ
[3] = biological target: GST-PPARγ fusion protein (immobilized PPARγ) (UniProt P37238); assay: pull-down of in vitro-translated PGC-1 with immobilized PPARγ
PPARγ [4] = biological target: PPARγ (UniProt P37238); assay: summary of the in vitro binding assays of Example IV
PPARγ [5] = biological target: PPARγ (UniProt P37238); assay: GST pull-down of in vitro-translated 35S-labeled receptor, autoradiography
[6] = biological target: GST-PPARγ fusion protein (immobilized PPARγ) (UniProt P37238); assay: pull-down of in vitro-translated 35S-labeled PGC-1 deletion with immobilized GST-PPARγ
[7] = biological target: GAL4 DNA-binding domain fused to amino acids 183-505 of murine PPARγ (murine) (UniProt P04386+P37238); assay: yeast two-hybrid screen, β-galactosidase filter assay

B1: HA-tagged full-length PGC-1 (protein, not shown: small tags and cut ends)
chain: MAWDMCSQDSVWSDIECAALVGEDQPLCPDLPELDLSELDVNDLDTDSFLGGLKWCSDQSEIISNQYNNEPANIFEKIDEENEANLLAVLTETLDSLPVDEDGLPSFDALTDGAVTTDNEASPSSMPDGTPPPQEAEEPSLLKKLLLAPANTQLSYNECSGLSTQNHAANHTHRIRTNPAIVKTENSWSNKAKSICQQQKPQRRPCSELLKYLTTNDDPPHTKPTENRNSSRDKCASKKKSHTQPQSQHAQAKPTTLSLPLTPESPNDPKGSPFENKTIERTLSVELSGTAGLTPPTTPPHKANQDNPFKASPKLKPSCKTVVPPPTKRARYSECSGTQGSHSTKKGPEQSELYAQLSKSSGLSRGHEERKTKRPSLRLFGDHDYCQSLNSKTDILINISQELQDSRQLDFKDASCDWQGHICSSTDSGQCYLRETLEASKQVSPCSTRKQLQDQEIRAELNKHFGHPCQAVFDDKSDKTSELRDGDFSNEQFSKLPVFINSGLAMDGLFDDSEDESDKLSYPWDGTQPYSLFDVSPSCSSFNSPCRDSVSPPKSLFSQRPQRMRSRSRSFSRHRSCSRSPYSRSRSRSPGSRSSSRSCYYYESSHYRHRTHRNSPLYVRSRSRSPYSRRPRYDSYEAYEHERLKRDEYRKEHEKRESERAKQRERQKQKAIEERRVIYVGKIRPDTTRTELRDRFEVFGEIEECTVNLRDDGDSYGFITYRYTCDAFAALENGYTLRRSNETDFELYFCGRKQFFKSNYADLDTNSDDFDPASTKSKYDSLDFDSLLKEAQRSLRR
binding (PPARγ [1]): binds

B3: PGC-1 (aa 36-797) fused to GST (protein, not shown: a dimerising Fc or GST)
chain: LSELDVNDLDTDSFLGGLKWCSDQSEIISNQYNNEPANIFEKIDEENEANLLAVLTETLDSLPVDEDGLPSFDALTDGAVTTDNEASPSSMPDGTPPPQEAEEPSLLKKLLLAPANTQLSYNECSGLSTQNHAANHTHRIRTNPAIVKTENSWSNKAKSICQQQKPQRRPCSELLKYLTTNDDPPHTKPTENRNSSRDKCASKKKSHTQPQSQHAQAKPTTLSLPLTPESPNDPKGSPFENKTIERTLSVELSGTAGLTPPTTPPHKANQDNPFKASPKLKPSCKTVVPPPTKRARYSECSGTQGSHSTKKGPEQSELYAQLSKSSGLSRGHEERKTKRPSLRLFGDHDYCQSLNSKTDILINISQELQDSRQLDFKDASCDWQGHICSSTDSGQCYLRETLEASKQVSPCSTRKQLQDQEIRAELNKHFGHPCQAVFDDKSDKTSELRDGDFSNEQFSKLPVFINSGLAMDGLFDDSEDESDKLSYPWDGTQPYSLFDVSPSCSSFNSPCRDSVSPPKSLFSQRPQRMRSRSRSFSRHRSCSRSPYSRSRSRSPGSRSSSRSCYYYESSHYRHRTHRNSPLYVRSRSRSPYSRRPRYDSYEAYEHERLKRDEYRKEHEKRESERAKQRERQKQKAIEERRVIYVGKIRPDTTRTELRDRFEVFGEIEECTVNLRDDGDSYGFITYRYTCDAFAALENGYTLRRSNETDFELYFCGRKQFFKSNYADLDTNSDDFDPASTKSKYDSLDFDSLLKEAQRSLRR
binding (PPARγ [4]): binds
binding (PPARγ [5]): binds

B4: PGC-1 1-338 (protein)
chain: MAWDMCSQDSVWSDIECAALVGEDQPLCPDLPELDLSELDVNDLDTDSFLGGLKWCSDQSEIISNQYNNEPANIFEKIDEENEANLLAVLTETLDSLPVDEDGLPSFDALTDGAVTTDNEASPSSMPDGTPPPQEAEEPSLLKKLLLAPANTQLSYNECSGLSTQNHAANHTHRIRTNPAIVKTENSWSNKAKSICQQQKPQRRPCSELLKYLTTNDDPPHTKPTENRNSSRDKCASKKKSHTQPQSQHAQAKPTTLSLPLTPESPNDPKGSPFENKTIERTLSVELSGTAGLTPPTTPPHKANQDNPFKASPKLKPSCKTVVPPPTKRARYSECSGT
modifications: [35S]methionine-labeled
binding [6]: binds

Further lines, results first:

binding [2]: binds
binding [3]: binds
B2: full-length mouse PGC-1 (aa 1-797) (protein)
chain: MAWDMCSQDSVWSDIECAALVGEDQPLCPDLPELDLSELDVNDLDTDSFLGGLKWCSDQSEIISNQYNNEPANIFEKIDEENEANLLAVLTETLDSLPVDEDGLPSFDALTDGAVTTDNEASPSSMPDGTPPPQEAEEPSLLKKLLLAPANTQLSYNECSGLSTQNHAANHTHRIRTNPAIVKTENSWSNKAKSICQQQKPQRRPCSELLKYLTTNDDPPHTKPTENRNSSRDKCASKKKSHTQPQSQHAQAKPTTLSLPLTPESPNDPKGSPFENKTIERTLSVELSGTAGLTPPTTPPHKANQDNPFKASPKLKPSCKTVVPPPTKRARYSECSGTQGSHSTKKGPEQSELYAQLSKSSGLSRGHEERKTKRPSLRLFGDHDYCQSLNSKTDILINISQELQDSRQLDFKDASCDWQGHICSSTDSGQCYLRETLEASKQVSPCSTRKQLQDQEIRAELNKHFGHPCQAVFDDKSDKTSELRDGDFSNEQFSKLPVFINSGLAMDGLFDDSEDESDKLSYPWDGTQPYSLFDVSPSCSSFNSPCRDSVSPPKSLFSQRPQRMRSRSRSFSRHRSCSRSPYSRSRSRSPGSRSSSRSCYYYESSHYRHRTHRNSPLYVRSRSRSPYSRRPRYDSYEAYEHERLKRDEYRKEHEKRESERAKQRERQKQKAIEERRVIYVGKIRPDTTRTELRDRFEVFGEIEECTVNLRDDGDSYGFITYRYTCDAFAALENGYTLRRSNETDFELYFCGRKQFFKSNYADLDTNSDDFDPASTKSKYDSLDFDSLLKEAQRSLRR
modifications: [35S]methionine-labeled in the pull-down assays

binding [7]: binds
B5: partial PGC-1 clone (nucleotides 610 to 3066 of SEQ ID NO:1) in the GAL4 activation domain plasmid pACT II (protein, not shown: large carriers)
chain: RIRTNPAIVKTENSWSNKAKSICQQQKPQRRPCSELLKYLTTNDDPPHTKPTENRNSSRDKCASKKKSHTQPQSQHAQAKPTTLSLPLTPESPNDPKGSPFENKTIERTLSVELSGTAGLTPPTTPPHKANQDNPFKASPKLKPSCKTVVPPPTKRARYSECSGTQGSHSTKKGPEQSELYAQLSKSSGLSRGHEERKTKRPSLRLFGDHDYCQSLNSKTDILINISQELQDSRQLDFKDASCDWQGHICSSTDSGQCYLRETLEASKQVSPCSTRKQLQDQEIRAELNKHFGHPCQAVFDDKSDKTSELRDGDFSNEQFSKLPVFINSGLAMDGLFDDSEDESDKLSYPWDGTQPYSLFDVSPSCSSFNSPCRDSVSPPKSLFSQRPQRMRSRSRSFSRHRSCSRSPYSRSRSRSPGSRSSSRSCYYYESSHYRHRTHRNSPLYVRSRSRSPYSRRPRYDSYEAYEHERLKRDEYRKEHEKRESERAKQRERQKQKAIEERRVIYVGKIRPDTTRTELRDRFEVFGEIEECTVNLRDDGDSYGFITYRYTCDAFAALENGYTLRRSNETDFELYFCGRKQFFKSNYADLDTNSDDFDPASTKSKYDSLDFDSLLKEAQRSLRR

binding [6]: binds
B6: PGC-1 1-403 (protein)
chain: MAWDMCSQDSVWSDIECAALVGEDQPLCPDLPELDLSELDVNDLDTDSFLGGLKWCSDQSEIISNQYNNEPANIFEKIDEENEANLLAVLTETLDSLPVDEDGLPSFDALTDGAVTTDNEASPSSMPDGTPPPQEAEEPSLLKKLLLAPANTQLSYNECSGLSTQNHAANHTHRIRTNPAIVKTENSWSNKAKSICQQQKPQRRPCSELLKYLTTNDDPPHTKPTENRNSSRDKCASKKKSHTQPQSQHAQAKPTTLSLPLTPESPNDPKGSPFENKTIERTLSVELSGTAGLTPPTTPPHKANQDNPFKASPKLKPSCKTVVPPPTKRARYSECSGTQGSHSTKKGPEQSELYAQLSKSSGLSRGHEERKTKRPSLRLFGDHDYCQSLNSKTDILINISQEL
modifications: [35S]methionine-labeled
